In patent publication US6046209A (priority 1998, dated 2000):
pEC50: −log10 of the molar value. The name of at least one read-out is uncertain.

Molecular target: T1, topoisomerase I (Homo sapiens, UniProt P11387)
T1 sequence (P11387 1-765): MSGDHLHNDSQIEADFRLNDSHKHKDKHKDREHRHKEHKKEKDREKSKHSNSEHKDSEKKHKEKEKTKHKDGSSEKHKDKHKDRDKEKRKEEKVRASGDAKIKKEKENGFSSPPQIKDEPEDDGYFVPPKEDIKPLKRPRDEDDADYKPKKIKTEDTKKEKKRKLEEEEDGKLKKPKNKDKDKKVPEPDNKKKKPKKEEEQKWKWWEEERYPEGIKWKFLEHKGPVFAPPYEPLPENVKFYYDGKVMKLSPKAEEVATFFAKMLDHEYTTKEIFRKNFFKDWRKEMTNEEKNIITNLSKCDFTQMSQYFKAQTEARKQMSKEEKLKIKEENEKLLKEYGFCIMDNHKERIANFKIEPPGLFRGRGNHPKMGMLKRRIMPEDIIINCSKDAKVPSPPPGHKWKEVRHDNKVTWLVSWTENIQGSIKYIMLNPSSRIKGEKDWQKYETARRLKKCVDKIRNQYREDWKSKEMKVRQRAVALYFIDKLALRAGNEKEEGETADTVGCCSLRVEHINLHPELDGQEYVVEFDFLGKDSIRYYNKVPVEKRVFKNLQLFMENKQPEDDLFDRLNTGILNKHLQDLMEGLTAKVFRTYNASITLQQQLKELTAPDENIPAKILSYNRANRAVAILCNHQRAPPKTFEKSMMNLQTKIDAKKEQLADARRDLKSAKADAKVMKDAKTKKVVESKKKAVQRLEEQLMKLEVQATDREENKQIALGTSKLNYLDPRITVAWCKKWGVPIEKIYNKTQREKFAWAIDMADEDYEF
Assay type: biochemical
Settings: cleavable complex formation, pBR325 DNA, 37° C.; read-out: Topoisomerase I Inhibition CC50

Compound: CC[C@@]1(O)C(=O)OCc2c1cc1n(c2=O)Cc2cc3c4c(ccc3nc2-1)OC(CN(C)C)C4 (stereo partly drawn) [Formula IV, (8S)-2-[(dimethylamino)methyl]-8-ethyl-1,2-dihydro-8-hydroxy-11H-furano[3,2-f]-pyrano[3',4':6,7]indolizino[1,2-b]quinoline-9,12(8H,14H)-dione]
- pEC50: 6.22

Compound: CC[C@@]1(O)C(=O)OCc2c1cc1n(c2=O)Cc2cc3c4c(ccc3nc2-1)OC(CN1CCOCC1)C4 (stereo partly drawn) [Formula III, (8S)-8-ethyl-1,2-dihydro-8-hydroxy-2(4-morpholinylmethyl)-11H-furano[3,2-f]-pyrano[3',4':6,7]indolizino[1,2-b]quinoline-9,12(8H,14H)-dione]
- pEC50: 6.04
